From publication PMC6036185
Results are given in words; binding and its absence hold for the method and conditions named.

Protein sequences, listed by entry. Tags and fused reporters are not part of them. Residues count along the entry.
UniProt Q7T9D9, residues 33-649: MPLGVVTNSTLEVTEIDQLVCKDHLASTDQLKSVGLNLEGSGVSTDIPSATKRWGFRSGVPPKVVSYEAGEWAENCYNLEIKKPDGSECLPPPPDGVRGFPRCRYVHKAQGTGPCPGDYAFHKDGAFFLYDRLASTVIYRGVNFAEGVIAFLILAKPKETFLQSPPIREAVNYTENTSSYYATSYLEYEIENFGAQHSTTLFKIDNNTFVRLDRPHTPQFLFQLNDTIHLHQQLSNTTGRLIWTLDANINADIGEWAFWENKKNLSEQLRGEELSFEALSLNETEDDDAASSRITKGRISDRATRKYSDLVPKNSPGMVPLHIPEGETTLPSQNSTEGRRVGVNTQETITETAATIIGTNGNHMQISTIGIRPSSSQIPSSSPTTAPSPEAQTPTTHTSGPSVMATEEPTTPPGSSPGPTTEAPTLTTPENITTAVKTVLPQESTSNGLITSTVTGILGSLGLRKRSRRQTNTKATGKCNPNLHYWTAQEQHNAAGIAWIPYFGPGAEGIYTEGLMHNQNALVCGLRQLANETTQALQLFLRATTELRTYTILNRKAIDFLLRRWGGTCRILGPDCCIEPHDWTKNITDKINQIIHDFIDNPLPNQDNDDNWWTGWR
UniProt O14931, residues 19-135: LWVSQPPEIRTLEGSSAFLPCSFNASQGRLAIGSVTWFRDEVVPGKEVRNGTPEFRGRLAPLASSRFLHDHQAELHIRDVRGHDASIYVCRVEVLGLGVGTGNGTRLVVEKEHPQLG
UniProt P26718, residues 73-216: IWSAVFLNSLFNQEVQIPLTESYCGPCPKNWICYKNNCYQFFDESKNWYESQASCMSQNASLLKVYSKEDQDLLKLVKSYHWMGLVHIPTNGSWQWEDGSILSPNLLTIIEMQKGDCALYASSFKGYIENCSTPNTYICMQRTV
UniProt O76036, residues 22-258: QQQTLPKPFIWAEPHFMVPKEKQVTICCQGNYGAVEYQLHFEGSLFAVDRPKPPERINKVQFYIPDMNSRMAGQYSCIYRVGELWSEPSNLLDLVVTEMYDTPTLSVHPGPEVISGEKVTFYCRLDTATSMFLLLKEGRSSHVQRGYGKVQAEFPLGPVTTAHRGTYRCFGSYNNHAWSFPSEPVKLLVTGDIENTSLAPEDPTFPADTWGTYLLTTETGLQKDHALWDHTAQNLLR
UniProt O95944, residues 22-192: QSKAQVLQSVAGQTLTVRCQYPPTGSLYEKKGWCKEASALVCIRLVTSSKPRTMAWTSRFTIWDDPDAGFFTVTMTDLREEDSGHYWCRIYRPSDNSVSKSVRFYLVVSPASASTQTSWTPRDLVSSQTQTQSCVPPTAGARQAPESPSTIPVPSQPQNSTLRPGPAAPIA
UniProt Q99706, residues 22-242: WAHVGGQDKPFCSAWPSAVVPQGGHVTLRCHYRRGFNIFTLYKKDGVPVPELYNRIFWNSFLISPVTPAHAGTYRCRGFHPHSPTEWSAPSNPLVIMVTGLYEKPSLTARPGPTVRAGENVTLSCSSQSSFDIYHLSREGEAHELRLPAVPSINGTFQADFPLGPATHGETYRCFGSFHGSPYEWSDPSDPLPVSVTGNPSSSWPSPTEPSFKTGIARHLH

Biological target: soluble recombinant Sudan virus (SUDV)-GP, Gulu strain, 1-649 ectodomain (Sudan virus (SUDV), strain Gulu) (UniProt Q7T9D9)
Test: ELISA; both purified

Substance | binding
NKp30-Ig (from UniProt O14931 19-135) (Fc fusion) | no binding (tested: 2 µg/ml)
NKG2D-Ig (from UniProt P26718 73-216) (Fc fusion) | no binding (tested: 2 µg/ml)
NKp46-Ig (from UniProt O76036) (Fc fusion) | no binding (tested: 2 µg/ml)
NKp44-Ig (from UniProt O95944) (Fc fusion) | no binding (tested: 2 µg/ml)
KIR2DL4-Ig (from UniProt Q99706 22-242) (Fc fusion) | no binding (tested: 2 µg/ml)
